# Test results: patent US20070173438A1, “[PSI[CH2NH]PG4] glycopeptide antibiotic analogs” (The Scripps Research Institute, priority 2006, published 2007)
# Some results were stated once for a whole list of compounds, not compound by compound. At least one compound was matched to its structure with a doubt left.
# Tested on: sensitive E. faecalis
# Experiment: antimicrobial activity against sensitive E. faecalis
# Format: cell-based
# Text: It is the most difficult of the resistant organisms to treat (vs VanB) and characteristic of such organisms, they grow unchallenged enlisting a D-Ala-D-Ala peptidoglycan cell wall precursor, but switch to D-Ala-D-Lac upon glycopeptide treatment.
compound,measurement,value
"CN[C@H](CC(C)C)C(=O)N[C@H]1C(=O)N[C@@H](CC(N)=O)C(=O)N[C@H]2C(=O)N[C@H]3C(=O)N[C@H](C(=O)N[C@H](C(=O)O)c4cc(O)cc(O)c4-c4cc3ccc4O)[C@H](O)c3ccc(c(Cl)c3)Oc3cc2cc(c3O)Oc2ccc(cc2Cl)[C@H]1O [vancomycin aglycon, reference compound]",MIC,1 to 2.5 µg/mL
